The list shows a part of the results. Calls are pooled over several reports, among them a noisy single-well screen.
Biological target: T1, OR52D1 (Homo sapiens) (UniProt Q9H346)
T1 sequence (whole entry): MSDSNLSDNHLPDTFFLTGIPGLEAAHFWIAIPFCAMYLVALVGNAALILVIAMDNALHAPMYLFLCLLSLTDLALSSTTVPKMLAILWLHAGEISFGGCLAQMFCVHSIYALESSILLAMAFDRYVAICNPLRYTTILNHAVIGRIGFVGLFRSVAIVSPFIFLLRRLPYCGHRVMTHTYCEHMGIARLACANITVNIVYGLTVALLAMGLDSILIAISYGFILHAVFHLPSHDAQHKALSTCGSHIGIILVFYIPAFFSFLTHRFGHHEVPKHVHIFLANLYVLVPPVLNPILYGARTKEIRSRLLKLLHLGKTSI
Conditions: stereoisomer not certain
How it was run: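 Each receptor–molecule pair is labelled responsive or non-responsive (inactive) according to whether the original authors judged the measured signal statistically different from baseline. The data were taken from the main text and supplementary material of published papers and checked for typos and inconsistencies. Assay methods differed by source, with transient luciferase assays in mammalian cell lines being common.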
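Note: active if original authors judged signal statistically different from baseline.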

Compound: CCOc1cc(C=O)ccc1O
- odorant receptor agonist call: inactive

Reference: the M2OR odorant receptor database
